# Measured values reported in US9315825B2, “Pharmacologically induced transgene ablation system” (The Trustees of the University of Pennsylvania, priority 2010, dated 2016).
# At least one compound was matched to its structure with a doubt left.
# Test system: luciferase transgene expression in human embryonic kidney fibroblast 293 cells
# Assay: In vitro model for PITA: luciferase activity in transfected 293 cells with or without rapamycin
# Assay type: cell-based
# Details: cells receiving PITA controlled cre constructs (treatment 3, 4 and 5); rapamycin 50 nM; 48 and 72 hour post transfection
structure (smiles),measurement,value
CO[C@H]1C[C@@H]2CC[C@@H](C)[C@@](O)(O2)C(=O)C(=O)N2CCCC[C@H]2C(=O)O[C@H]([C@H](C)C[C@@H]2CC[C@@H](O)[C@H](OC)C2)CC(=O)[C@H](C)/C=C(\C)[C@@H](O)[C@@H](OC)C(=O)[C@H](C)C[C@H](C)/C=C/C=C/C=C/1C [rapamycin],"level of reporter gene (luciferase) expression upon induction by rapamycin, compared to the control (treatment 2)",significantly reduced
